According to US20230235074A1 (University of Texas, published 2023):
No constants are given. Whether binding was seen depends on the method and setting.

B1: LA1 antibody (antibody, IgG1, V domains shown)
VH: EVQLQQSGPELVKPGASVKISCKTSGYTFTEDTMHWVKQSHGKSLEWIGGINPNKGGTSYNQKFKDKATLTVDKSSSTAYMELRSLTSEDSAVYYCATLVDYWGQGTTLTVSS
VL: DIVMTQSQKFMSTSVGDRVSVTCKASQNVGTNVAWYQQKPGQSPKALIHSASYRYSGVPDRFTGSGSGTDFTLTISNVQSEDLAEYFCQQYNSYPLTFGAGTKLELK
notes: Mouse hybridoma antibody, isotype IgG1, kappa; Tested as hybridoma supernatant
B2: BM7 antibody (antibody, IgG1, V domains shown)
VH: QVTLKESGPGILKPSQTLSLTCSFSGFSLSTSGVGVGWIRQPSGKGLEWLAHIWWDDDEYYNPSLKSQLTISKDTSRNQVFLKITSVDTSDTATYYCARRYYGDAMDYWGQGTAVTVSS
VL: DVVMTQTPVSLPVSLGDQASISCRSTQSLVHSNGHTYLHWYLQKPGQSPKLLIYKVSNRFSGVPDRFSGTGSGTDFTLKISRVEAEDLGVYFCSQSTHVPYTFGGGTKLEIK
notes: Tested as hybridoma supernatant

Target: BST2 medium isoform (BST2-H, 158 amino acids) expressed on HEK293 transfectants
Assay: cell-based ELISA on dried cells, hybridoma supernatant, OD 450 nm

| Binder | binding |
| --- | --- |
| B1 | no binding (tested: undiluted supernatant) |
| B2 | no binding (tested: undiluted supernatant) |
